Test [1] addresses Cynomolgus sIL6R (cynomolgus). Description: ELISA (enzyme immunoassay), antibody titrated 2 to 0.0039 ug/ml; plate format not described. (An ELISA detects its analyte on a solid surface through an enzyme-linked reagent.)
The target in test [2] is Cynomolgus sIL6R (cynomolgus). Description: BLI, Octet Red 96.

Results are given in words; binding and its absence hold for the method and conditions named. Some results given as binding are weak or reduced against the parent protein; the word gives no strength.

B1: BCD089 antibody (anti-IL-6sR) (antibody, IgG1, V domains shown)
VH: QVQLVQSGGGLVQPGGSLRLSCAASGFTFSSYYMSWVRQAPGKGLEWVSGIYSDGTTHYGDSVKGRFTISRDNAKNTVYLQLNSLRAEDTAMYYCAKGAGPTWWYALDAWGQGTLVTVSS
VL: DIQLTQSPSSVSVSVGERVTIDCKSSQSVLSASNTYLNWYQQKPGQAPQLLIYYASTRESGVPDRFSGSGSGTDFTLTISSLQAEDAAVYYCQQAYRAPVTFGQGTKLEIKR
As to B1, the binding result in test [1] and in test [2] was “binds” throughout.

For the origin of these results see patent US20190194313A1.
